Test results as given in patent US20250332212A1, “METHOD FOR TREATING OR PREVENTING ALOPECIA” (Suzhou Mingren Pharmaceutical Biotechnology Co., Ltd., priority 2024, published 2025).
For at least one compound, name, drawing or mass did not settle the structure.

Key:
[1] = tested on: TP-induced AGA model mice; experiment: TP-induced AGA model, Animal model II (JP1 topical, dose-effect); format: in vivo, C57BL/6J male mice
Protocol: To prolong the action time of JP1, the design scheme of the animal model in this example adjusted the once-a-day of the first model to twice-a-day administration with an interval of 6 h (FIG. 6A). For details of the experiments, please refer to “Animal model II” of “1. TP-induced AGA model” in “Experimental Methods” below.
The mice used in this study were 5-week-old C57BL/6J male mice (18-20 g), which were purchased from Jiangsu Jicui Pharmachem Biotechnology Co. All the animals used in the experiments were housed in the SPF-level environment of the Medical Laboratory Animal Center of Nanjing Medical University, and the relevant animal experimental operations were approved by the Animal Ethics Committee of Nanjing Medical University. The control group was left untreated, and the other groups were injected with TP subcutaneously on their backs every day. Two weeks later, the hair on the backs of the mice was shaved with an electric razor, covering an area of 2 cm×4 cm, and then the residual hair was removed with a hair removal cream. The subcutaneous injections of TP on the shaved backs of the mice in the AGA model was continued until the end of the experimental period, and the administration of TP in each of the treatment groups was begun on the 1st day of the dehairing process. […]
Mice were weighed every two days during the experiment. Skin color was assessed against skin score charts. […]

β-catenin = β-catenin expression in skin tissue (qPCR, immunoblotting, immunofluorescence); format: in vivo, mouse; conditions: dose-effect relationship for JP1
Protocol: (§1) 4.1) Protein extraction: 70 mg of skin tissue was placed in a 1.5 mL centrifuge tube, and 500 μL of tissue lysate RIPA containing protease inhibitor and phosphatase inhibitor was added. The tissue was placed on an ice box, pulverized by a tissue grinder, and then ultrasonically crushed to obtain a tissue suspension, which was then placed in a rotary windmill at 4° C. to be lysed for 2 h. The centrifuge was set at 12,000×g, 4° C., centrifuged for 15 min, and the supernatant was collected as the total protein.
5.1) Heating of protein samples: the total protein content of each tissue was 50 μg; calculate the volume of a corresponding protein sample, make up the volume with saline to 16 μL, then add 4 μL of 5×SDS sampling buffer, heat at 100° C. for 5 min, and then cool at room temperature and store at −20° C.
5.7) Primary antibody incubation: the cut protein bands were placed into the corresponding primary antibody and incubated at 4° C. on a shaker overnight, washed with TBST 3 times for 10 min/time.
7.1) Dilute the specific gene amplification primers to 10 µM in ddH2O, prepare the qPCR reaction system according to the instructions in the kit and add them sequentially into a 384-well plate.
(§2) 7.3) Relative mRNA expression levels of genes were calculated by the […] relative quantification method using GAPDH as an internal reference. […]

integrin αv = experiment: Integrin αv expression in skin tissue (qPCR, immunoblotting, immunofluorescence); format: in vivo, mouse; conditions: JP1 P<0.01
Excerpt: (§3) In this example, the mRNA expression levels of RGD-targeting molecules in the skin tissues of three groups of mice, namely, the AGA model control group, the model group and the JP1-treated group, were further examined.
(§4) To verify whether JP1 targeted integrin molecules are localized in hair follicles in the skin tissue, this example detected the expression levels, tissue localization, and distribution of integrin αv and integrin β1 in the skin tissue of the mouse model in Example 6 using immunofluorescence staining.
as §1, with “protein. […]” for “protein.”
as §2

integrin β1 = experiment: Integrin β1 expression in skin tissue (qPCR, immunoblotting, immunofluorescence); format: in vivo, mouse; conditions: JP1 P<0.01
Excerpt: as §3, §4
as §1, with “protein. […]” for “protein.”
as §2

SMILES: Nc1cc(N2CCCCC2)nc(N)[n+]1[O-] [minoxidil, reference compound]
- effect on growth cycle of hair follicles ([1]; JP1 or minoxidil intervention): accelerate the entry of hair follicles into the anagen phase and shorten the resting phase
- skin color on the 11th day ([1]; topical, model group appeared orange): changed to gray
- β-catenin protein expression (β-catenin): slightly weaker than that of the JP1 group
- integrin αv protein level (TP-down-regulated) (integrin αv): does not have a significant effect
- integrin β1 protein level (TP-down-regulated) (integrin β1): does not have a significant effect
